According to patent publication US6541450B1 (National Research Council of Canada, priority 1994, dated 2003):
Bridges are numbered along the chain shown (N, C = ends).

Assay: general procedure: Fmoc solid-phase peptide synthesis; Tentagel R (Rapp Polymere); HOBt/TBTU/DIPEA
Details: whole synthesis

Substance	final purity (method not given) [%]
H-SVSEIQLMHNLGKHLNSMERVEWLRKLLQD-NH2 (lactam 22-26; SMILES CC[C@H](C)[C@H](NC(=O)[C@H](CCC(=O)O)NC(=O)[C@H](CO)NC(=O)[C@@H](NC(=O)[C@@H](N)CO)C(C)C)C(=O)N[C@@H](CCC(N)=O)C(=O)N[C@@H](CC(C)C)C(=O)N[C@@H](CCSC)C(=O)N[C@@H](Cc1c[nH]cn1)C(=O)N[C@@H](CC(N)=O)C(=O)N[C@@H](CC(C)C)C(=O)NCC(=O)N[C@@H](CCCCN)C(=O)N[C@@H](Cc1c[nH]cn1)C(=O)N[C@@H](CC(C)C)C(=O)N[C@@H](CC(N)=O)C(=O)N[C@@H](CO)C(=O)N[C@@H](CCSC)C(=O)N[C@@H](CCC(=O)O)C(=O)N[C@@H](CCCNC(=N)N)C(=O)N[C@H](C(=O)N[C@H]1CCC(=O)NCCCC[C@@H](C(=O)N[C@@H](CC(C)C)C(=O)N[C@@H](CC(C)C)C(=O)N[C@@H](CCC(N)=O)C(=O)N[C@@H](CC(=O)O)C(N)=O)NC(=O)[C@H](CCCNC(=N)N)NC(=O)[C@H](CC(C)C)NC(=O)[C@H](Cc2c[nH]c3ccccc23)NC1=O)C(C)C)	>97
Cyclo(Lys^27-Asp^30)-hPTH-(1-31)-NH2	>95
